The target of the assay is Semliki Forest virus (SFV) nsP3 fused with the biotin ligase miniTurbo (nsP3-mTB) (Semliki Forest virus). The experiment in a line: proximity labelling.

These are yes or no findings as the source states them, for the method shown. Binding seen in cells or lysates may run through a third protein. A yes stands for co-enrichment or nearness to the bait. Other partners may have been found.

B1: RC3H1, human (protein, UniProt Q5TC82 1-1133)
chain: MPVQAPQWTDFLSCPICTQTFDETIRKPISLGCGHTVCKMCLNKLHRKACPFDQTTINTDIELLPVNSALLQLVGAQVPEQQPITLCSGVEDTKHYEEAKKCVEELALYLKPLSSARGVGLNSTTQSVLSRPMQRKLVTLVHCQLVEEEGRIRAMRAARSLGERTVTELILQHQNPQQLSSNLWAAVRARGCQFLGPAMQEEALKLVLLALEDGSALSRKVLVLFVVQRLEPRFPQASKTSIGHVVQLLYRASCFKVTKRDEDSSLMQLKEEFRTYEALRREHDSQIVQIAMEAGLRIAPDQWSSLLYGDQSHKSHMQSIIDKLQTPASFAQSVQELTIALQRTGDPANLNRLRPHLELLANIDPSPDAPPPTWEQLENGLVAVRTVVHGLVDYIQNHSKKGADQQQPPQHSKYKTYMCRDMKQRGGCPRGASCTFAHSQEELEKFRKMNKRLVPRRPLSASLGQLNEVGLPSAAILPDEGAVDLPSRKPPALPNGIVSTGNTVTQLIPRGTDPSYDSSLKPGKIDHLSSSAPGSPPDLLESVPKSISALPVNPHSIPPRGPADLPPMPVTKPLQMVPRGSQLYPAQQTDVYYQDPRGAAPPFEPAPYQQGMYYTPPPQCVSRFVRPPPSAPEPAPPYLDHYPPYLQERVVNSQYGTQPQQYPPIYPSHYDGRRVYPAPSYTREEIFRESPIPIEIPPAAVPSYVPESRERYQQIESYYPVAPHPTQIRPSYLREPPYSRLPPPPQPHPSLDELHRRRKEIMAQLEERKVISPPPFAPSPTLPPTFHPEEFLDEDLKVAGKYKGNDYSQYSPWSCDTIGSYIGTKDAKPKDVVAAGSVEMMNVESKGMRDQRLDLQRRAAETSDDDLIPFGDRPTVSRFGAISRTSKTIYQGAGPMQAMAPQGAPTKSINISDYSPYGTHGGWGASPYSPHQNIPSQGHFSERERISMSEVASHGKPLPSAEREQLRLELQQLNHQISQQTQLRGLEAVSNRLVLQREANTLAGQSQPPPPPPPKWPGMISSEQLSLELHQVEREIGKRTRELSMENQCSLDMKSKLNTSKQAENGQPEPQNKVPAEDLTLTFSDVPNGSALTQENISLLSNKTSSLNLSEDPEGGGDNNDSQRSGVTPSSAP
For the molecule B1, the binding result is listed as “binds”.

B2: eIF2A (protein, UniProt Q9BY44 1-585)
chain: MAPSTPLLTVRGSEGLYMVNGPPHFTESTVFPRESGKNCKVCIFSKDGTLFAWGNGEKVNIISVTNKGLLHSFDLLKAVCLEFSPKNTVLATWQPYTTSKDGTAGIPNLQLYDVKTGTCLKSFIQKKMQNWCPSWSEDETLCARNVNNEVHFFENNNFNTIANKLHLQKINDFVLSPGPQPYKVAVYVPGSKGAPSFVRLYQYPNFAGPHAALANKSFFKADKVTMLWNKKATAVLVIASTDVDKTGASYYGEQTLHYIATNGESAVVQLPKNGPIYDVVWNSSSTEFCAVYGFMPAKATIFNLKCDPVFDFGTGPRNAAYYSPHGHILVLAGFGNLRGQMEVWDVKNYKLISKPVASDSTYFAWCPDGEHILTATCAPRLRVNNGYKIWHYTGSILHKYDVPSNAELWQVSWQPFLDGIFPAKTITYQAVPSEVPNEEPKVATAYRPPALRNKPITNSKLHEEEPPQNMKPQSGNDKPLSKTALKNQRKHEAKKAAKQEARSDKSPDLAPTPAPQSTPRNTVSQSISGDPEIDKKIKNLKKKLKAIEQLKEQAATGKQLEKNQLEKIQKETALLQELEDLELGI
Turning to B2, the binding result is “binds”.

B3: ATXN2L, human (protein, UniProt Q8WWM7 1-1075)
chain: MLKPQPLQQPSQPQQPPPTQQAVARRPPGGTSPPNGGLPGPLATSAAPPGPPAAASPCLGPVAAAGSGLRRGAEGILAPQPPPPQQHQERPGAAAIGSARGQSTGKGPPQSPVFEGVYNNSRMLHFLTAVVGSTCDVKVKNGTTYEGIFKTLSSKFELAVDAVHRKASEPAGGPRREDIVDTMVFKPSDVMLVHFRNVDFNYATKDKFTDSAIAMNSKVNGEHKEKVLQRWEGGDSNSDDYDLESDMSNGWDPNEMFKFNEENYGVKTTYDSSLSSYTVPLEKDNSEEFRQRELRAAQLAREIESSPQYRLRIAMENDDGRTEEEKHSAVQRQGSGRESPSLASREGKYIPLPQRVREGPRGGVRCSSSRGGRPGLSSLPPRGPHHLDNSSPGPGSEARGINGGPSRMSPKAQRPLRGAKTLSSPSNRPSGETSVPPPPAVGRMYPPRSPKSAAPAPISASCPEPPIGSAVPTSSASIPVTSSVSDPGVGSISPASPKISLAPTDVKELSTKEPGRTLEPQELARIAGKVPGLQNEQKRFQLEELRKFGAQFKLQPSSSPENSLDPFPPRILKEEPKGKEKEVDGLLTSEPMGSPVSSKTESVSDKEDKPPLAPSGGTEGPEQPPPPCPSQTGSPPVGLIKGEDKDEGPVAEQVKKSTLNPNAKEFNPTKPLLSVNKSTSTPTSPGPRTHSTPSIPVLTAGQSGLYSPQYISYIPQIHMGPAVQAPQMYPYPVSNSVPGQQGKYRGAKGSLPPQRSDQHQPASAPPMMQAAAAAGPPLVAATPYSSYIPYNPQQFPGQPAMMQPMAHYPSQPVFAPMLQSNPRMLTSGSHPQAIVSSSTPQYPSAEQPTPQALYATVHQSYPHHATQLHAHQPQPATTPTGSQPQSQHAAPSPVQHQAGQAPHLGSGQPQQNLYHPGALTGTPPSLPPGPSAQSPQSSFPQPAAVYAIHHQQLPHGFTNMAHVTQAHVQTGITAAPPPHPGAPHPPQVMLLHPPQSHGGPPQGAVPQSGVPALSASTPSPYPYIGHPQGEQPGQAPGFPGGADDRIREFSLAGGIWHGRAEGLQVGQDARVLGGE
Take B3: the binding result is on record as “binds”.

The values above are taken from article PMC12005498.
